# In the supplement of paper PMC6411743:
# Amino acid sequences for entries named in this document (tags omitted). A change or cut given only in a name is not applied to a line headed by its entry.
# UniProt Q8IU85: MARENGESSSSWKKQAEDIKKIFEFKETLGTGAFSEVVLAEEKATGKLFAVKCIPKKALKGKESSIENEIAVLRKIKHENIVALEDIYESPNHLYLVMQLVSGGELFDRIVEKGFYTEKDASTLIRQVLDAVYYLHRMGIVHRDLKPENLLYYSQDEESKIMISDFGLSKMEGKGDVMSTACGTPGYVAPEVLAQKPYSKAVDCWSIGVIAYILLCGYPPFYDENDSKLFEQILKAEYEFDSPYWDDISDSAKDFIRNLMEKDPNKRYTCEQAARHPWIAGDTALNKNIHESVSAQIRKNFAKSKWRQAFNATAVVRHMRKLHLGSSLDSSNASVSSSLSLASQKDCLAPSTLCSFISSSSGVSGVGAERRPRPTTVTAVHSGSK
# UniProt Q86UK7: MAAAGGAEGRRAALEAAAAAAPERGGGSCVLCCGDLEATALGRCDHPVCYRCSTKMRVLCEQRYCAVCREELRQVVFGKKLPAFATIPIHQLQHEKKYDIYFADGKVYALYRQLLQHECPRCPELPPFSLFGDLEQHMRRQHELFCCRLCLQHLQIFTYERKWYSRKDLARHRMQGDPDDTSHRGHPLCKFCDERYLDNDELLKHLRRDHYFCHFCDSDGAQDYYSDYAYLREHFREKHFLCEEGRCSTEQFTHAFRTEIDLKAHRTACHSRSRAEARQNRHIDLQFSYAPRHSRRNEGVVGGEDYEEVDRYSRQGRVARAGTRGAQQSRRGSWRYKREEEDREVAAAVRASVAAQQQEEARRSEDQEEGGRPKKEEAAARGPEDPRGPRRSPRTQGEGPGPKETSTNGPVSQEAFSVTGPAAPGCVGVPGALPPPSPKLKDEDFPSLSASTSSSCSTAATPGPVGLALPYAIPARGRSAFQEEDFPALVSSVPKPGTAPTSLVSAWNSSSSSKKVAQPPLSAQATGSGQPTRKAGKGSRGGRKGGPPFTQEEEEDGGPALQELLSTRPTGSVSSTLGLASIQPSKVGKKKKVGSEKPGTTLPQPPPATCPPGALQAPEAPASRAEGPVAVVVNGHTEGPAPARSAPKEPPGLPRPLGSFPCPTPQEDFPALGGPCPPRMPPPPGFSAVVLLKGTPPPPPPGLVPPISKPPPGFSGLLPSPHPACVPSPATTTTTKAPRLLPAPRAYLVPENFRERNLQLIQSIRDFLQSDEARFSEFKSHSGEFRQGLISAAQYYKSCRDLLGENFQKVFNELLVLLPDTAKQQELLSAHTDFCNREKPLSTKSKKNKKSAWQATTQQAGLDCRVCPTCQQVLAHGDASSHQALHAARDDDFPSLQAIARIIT
# UniProt Q7Z7K0: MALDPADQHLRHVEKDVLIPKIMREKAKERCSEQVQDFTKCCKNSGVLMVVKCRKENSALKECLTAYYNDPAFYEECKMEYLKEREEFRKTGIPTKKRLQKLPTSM
# UniProt Q7L0Y3: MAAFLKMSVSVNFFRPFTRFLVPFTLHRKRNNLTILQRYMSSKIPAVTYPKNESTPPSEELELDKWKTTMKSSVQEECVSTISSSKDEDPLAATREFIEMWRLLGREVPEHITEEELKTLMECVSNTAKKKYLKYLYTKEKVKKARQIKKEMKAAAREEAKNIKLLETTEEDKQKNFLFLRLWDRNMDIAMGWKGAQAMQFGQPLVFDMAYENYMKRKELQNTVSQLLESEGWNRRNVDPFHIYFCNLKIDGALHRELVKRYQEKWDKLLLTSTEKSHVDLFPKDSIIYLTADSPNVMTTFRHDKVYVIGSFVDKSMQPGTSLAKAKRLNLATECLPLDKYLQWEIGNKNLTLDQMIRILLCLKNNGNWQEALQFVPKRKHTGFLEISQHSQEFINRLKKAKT
# UniProt Q7L5Y1: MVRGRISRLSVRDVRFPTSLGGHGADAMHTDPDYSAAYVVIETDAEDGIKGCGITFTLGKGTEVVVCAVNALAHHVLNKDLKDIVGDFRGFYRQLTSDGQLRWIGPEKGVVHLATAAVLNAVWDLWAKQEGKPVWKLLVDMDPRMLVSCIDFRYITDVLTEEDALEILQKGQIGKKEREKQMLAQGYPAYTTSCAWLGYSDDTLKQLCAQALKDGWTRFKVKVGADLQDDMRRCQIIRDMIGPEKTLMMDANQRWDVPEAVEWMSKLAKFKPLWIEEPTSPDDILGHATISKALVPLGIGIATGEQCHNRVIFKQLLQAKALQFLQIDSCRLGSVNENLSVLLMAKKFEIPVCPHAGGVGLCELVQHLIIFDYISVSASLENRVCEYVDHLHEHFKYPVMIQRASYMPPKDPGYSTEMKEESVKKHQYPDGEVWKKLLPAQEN
# UniProt Q8IV38: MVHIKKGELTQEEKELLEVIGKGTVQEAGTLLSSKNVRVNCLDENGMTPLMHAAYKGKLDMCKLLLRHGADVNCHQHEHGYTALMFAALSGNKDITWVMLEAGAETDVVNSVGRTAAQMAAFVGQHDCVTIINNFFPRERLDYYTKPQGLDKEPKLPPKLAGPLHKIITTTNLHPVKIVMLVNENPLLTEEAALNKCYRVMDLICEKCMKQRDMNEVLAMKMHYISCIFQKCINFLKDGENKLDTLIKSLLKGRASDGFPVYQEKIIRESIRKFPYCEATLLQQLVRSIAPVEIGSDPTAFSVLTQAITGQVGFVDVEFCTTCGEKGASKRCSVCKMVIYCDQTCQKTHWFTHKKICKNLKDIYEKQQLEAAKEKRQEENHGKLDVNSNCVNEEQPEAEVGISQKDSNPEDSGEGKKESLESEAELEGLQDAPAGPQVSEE
# UniProt Q86V88: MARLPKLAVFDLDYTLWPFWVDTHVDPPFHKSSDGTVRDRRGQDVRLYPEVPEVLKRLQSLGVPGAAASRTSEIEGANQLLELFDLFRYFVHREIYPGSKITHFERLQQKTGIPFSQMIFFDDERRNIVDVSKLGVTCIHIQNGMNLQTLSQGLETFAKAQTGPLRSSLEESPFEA
# UniProt Q86XN8: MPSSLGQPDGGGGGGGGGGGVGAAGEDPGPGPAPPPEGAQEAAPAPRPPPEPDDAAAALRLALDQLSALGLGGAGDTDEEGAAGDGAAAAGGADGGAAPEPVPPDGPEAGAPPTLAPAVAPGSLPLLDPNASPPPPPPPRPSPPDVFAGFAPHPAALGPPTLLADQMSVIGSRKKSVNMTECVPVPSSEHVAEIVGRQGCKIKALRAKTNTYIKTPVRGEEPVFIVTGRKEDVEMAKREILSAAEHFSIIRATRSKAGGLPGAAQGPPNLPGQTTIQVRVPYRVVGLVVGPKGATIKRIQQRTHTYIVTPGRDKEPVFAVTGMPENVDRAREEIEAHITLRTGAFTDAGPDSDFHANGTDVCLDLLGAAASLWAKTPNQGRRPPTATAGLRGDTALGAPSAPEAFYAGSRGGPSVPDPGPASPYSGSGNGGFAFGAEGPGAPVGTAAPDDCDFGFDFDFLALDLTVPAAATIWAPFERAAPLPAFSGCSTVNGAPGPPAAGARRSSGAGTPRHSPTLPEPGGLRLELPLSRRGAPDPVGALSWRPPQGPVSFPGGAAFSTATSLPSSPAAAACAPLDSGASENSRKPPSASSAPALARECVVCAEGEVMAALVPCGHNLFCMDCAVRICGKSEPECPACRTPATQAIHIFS
# UniProt Q7Z6M1: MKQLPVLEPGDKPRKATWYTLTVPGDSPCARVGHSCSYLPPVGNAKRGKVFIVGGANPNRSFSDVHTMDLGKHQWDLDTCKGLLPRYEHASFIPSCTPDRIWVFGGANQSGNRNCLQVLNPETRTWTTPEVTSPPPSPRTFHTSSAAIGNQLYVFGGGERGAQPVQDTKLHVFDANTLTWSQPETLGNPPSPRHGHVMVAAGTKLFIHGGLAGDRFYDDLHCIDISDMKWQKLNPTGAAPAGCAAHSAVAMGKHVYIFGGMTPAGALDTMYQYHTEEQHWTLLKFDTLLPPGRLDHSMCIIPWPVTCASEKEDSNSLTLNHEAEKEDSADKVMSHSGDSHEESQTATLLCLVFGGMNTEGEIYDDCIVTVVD
# UniProt Q7Z2K6: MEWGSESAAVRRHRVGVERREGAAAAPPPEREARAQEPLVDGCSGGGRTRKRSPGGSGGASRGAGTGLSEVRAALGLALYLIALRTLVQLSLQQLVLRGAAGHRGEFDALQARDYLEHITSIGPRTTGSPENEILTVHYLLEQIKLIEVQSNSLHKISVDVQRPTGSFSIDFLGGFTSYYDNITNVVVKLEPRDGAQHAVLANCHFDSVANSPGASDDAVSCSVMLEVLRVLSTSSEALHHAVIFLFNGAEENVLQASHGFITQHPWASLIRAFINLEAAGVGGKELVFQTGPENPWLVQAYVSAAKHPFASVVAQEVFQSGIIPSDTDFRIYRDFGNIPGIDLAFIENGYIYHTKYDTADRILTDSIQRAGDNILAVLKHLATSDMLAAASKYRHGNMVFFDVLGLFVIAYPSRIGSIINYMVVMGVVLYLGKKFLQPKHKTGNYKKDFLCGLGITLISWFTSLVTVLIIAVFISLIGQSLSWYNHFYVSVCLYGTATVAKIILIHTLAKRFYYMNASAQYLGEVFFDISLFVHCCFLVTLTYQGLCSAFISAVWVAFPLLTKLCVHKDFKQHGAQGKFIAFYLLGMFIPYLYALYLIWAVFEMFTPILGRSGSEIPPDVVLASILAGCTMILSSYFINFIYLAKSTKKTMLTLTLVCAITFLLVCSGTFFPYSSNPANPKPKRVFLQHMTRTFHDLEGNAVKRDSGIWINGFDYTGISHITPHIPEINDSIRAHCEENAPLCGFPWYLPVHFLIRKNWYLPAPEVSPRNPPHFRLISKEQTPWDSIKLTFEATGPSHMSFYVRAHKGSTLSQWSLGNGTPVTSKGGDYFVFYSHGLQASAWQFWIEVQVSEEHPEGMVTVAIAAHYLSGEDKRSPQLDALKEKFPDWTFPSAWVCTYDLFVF
# UniProt Q6UXV4: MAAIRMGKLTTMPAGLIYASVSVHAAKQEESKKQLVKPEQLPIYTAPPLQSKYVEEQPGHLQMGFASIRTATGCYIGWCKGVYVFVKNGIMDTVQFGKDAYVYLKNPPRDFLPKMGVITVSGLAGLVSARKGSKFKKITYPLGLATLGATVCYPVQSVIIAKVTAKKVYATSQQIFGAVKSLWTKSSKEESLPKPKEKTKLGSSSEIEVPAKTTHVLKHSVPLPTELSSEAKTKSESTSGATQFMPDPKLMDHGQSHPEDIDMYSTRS
# UniProt Q86VY4: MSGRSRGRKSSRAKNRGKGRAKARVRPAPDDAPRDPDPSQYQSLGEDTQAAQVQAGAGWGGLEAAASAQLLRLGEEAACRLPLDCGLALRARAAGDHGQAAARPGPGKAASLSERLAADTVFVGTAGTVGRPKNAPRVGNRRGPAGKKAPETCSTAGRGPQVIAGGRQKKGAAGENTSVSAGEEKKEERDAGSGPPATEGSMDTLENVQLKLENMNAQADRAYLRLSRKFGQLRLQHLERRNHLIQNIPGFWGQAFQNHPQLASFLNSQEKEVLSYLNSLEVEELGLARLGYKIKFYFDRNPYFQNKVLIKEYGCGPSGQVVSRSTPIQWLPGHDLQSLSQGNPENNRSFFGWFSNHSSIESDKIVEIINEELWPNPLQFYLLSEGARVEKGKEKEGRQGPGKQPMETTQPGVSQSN
# UniProt Q7L3B6: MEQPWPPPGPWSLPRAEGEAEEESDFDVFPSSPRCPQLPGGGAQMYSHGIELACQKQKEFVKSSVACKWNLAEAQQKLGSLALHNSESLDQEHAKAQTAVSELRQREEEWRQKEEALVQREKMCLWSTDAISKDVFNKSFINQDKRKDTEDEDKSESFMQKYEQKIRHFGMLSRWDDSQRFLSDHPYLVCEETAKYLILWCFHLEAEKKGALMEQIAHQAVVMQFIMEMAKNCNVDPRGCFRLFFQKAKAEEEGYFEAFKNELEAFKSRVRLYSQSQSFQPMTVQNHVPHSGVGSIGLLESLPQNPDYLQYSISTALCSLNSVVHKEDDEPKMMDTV
# UniProt Q6PI78: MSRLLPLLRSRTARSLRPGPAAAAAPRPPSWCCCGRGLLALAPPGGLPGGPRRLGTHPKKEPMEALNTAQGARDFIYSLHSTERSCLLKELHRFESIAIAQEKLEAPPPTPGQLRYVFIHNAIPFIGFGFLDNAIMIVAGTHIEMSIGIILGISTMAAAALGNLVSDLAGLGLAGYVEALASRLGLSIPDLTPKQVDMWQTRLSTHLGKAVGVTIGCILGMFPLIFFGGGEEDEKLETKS
# UniProt Q7KYR7: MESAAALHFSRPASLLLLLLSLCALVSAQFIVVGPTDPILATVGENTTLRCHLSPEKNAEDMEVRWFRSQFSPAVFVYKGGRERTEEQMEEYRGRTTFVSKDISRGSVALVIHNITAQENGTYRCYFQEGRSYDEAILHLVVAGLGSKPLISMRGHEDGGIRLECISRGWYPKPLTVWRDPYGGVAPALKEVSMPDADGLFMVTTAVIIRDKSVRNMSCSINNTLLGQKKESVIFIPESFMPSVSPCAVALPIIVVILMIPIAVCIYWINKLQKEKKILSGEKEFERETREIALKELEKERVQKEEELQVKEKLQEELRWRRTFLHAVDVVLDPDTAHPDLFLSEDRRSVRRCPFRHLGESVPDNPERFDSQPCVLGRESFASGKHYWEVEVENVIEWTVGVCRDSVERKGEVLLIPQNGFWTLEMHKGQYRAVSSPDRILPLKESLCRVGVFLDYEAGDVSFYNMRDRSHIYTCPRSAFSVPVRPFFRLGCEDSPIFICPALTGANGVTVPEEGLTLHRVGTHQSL
# ± gives the standard deviation of the averaged measurements. The list shows a part of the results, in another mix than the full data. Most values lie at the level of the controls, where differences are scatter.
# Compound: Nc1ncnc2c1ncn2[C@@H]1O[C@H](COP(=O)(O)OP(=O)(O)OP(=O)(O)O)[C@@H](O)[C@H]1O [adenosine triphosphate]
# Experiment: NP40-soluble protein abundance relative to vehicle (solubility fold change) (ratio); higher = more soluble protein in presence of ATP
# Details: concentration: 0.1mM
# How it was run: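 Each value is a fold change relative to the detergent-processed vehicle, calculated per replicate from vsn-normalised intensities. Jurkat crude lysate received eight concentrations (0.1 to 10 mM) for 10 min at room temperature and 3 min at 37 °C, then was solubilised in 0.8% NP40 with benzonase (60 min, 4 °C). The ultracentrifuged supernatant was TMT-labelled and run by LC-MS/MS in three independent experiments.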
row,Target,NP40-soluble protein abundance
1,CACUL1 (UniProt Q86Y37),0.996 ± 0.067
2,UniProt Q6PJG2 and related entries,1.02 ± 0.031
3,UniProt Q8IU85 and related entries,1.07 ± 0.082
4,UniProt Q86UK7 and related entries,1 ± 0.03
5,UniProt Q6ZNW5,0.96 ± 0.048
6,CMC1 (UniProt Q7Z7K0),0.921 ± 0.041
7,PLD3 (UniProt Q8IV08),0.92 ± 0.045
8,UniProt Q7L0Y3,0.982 ± 0.023
9,UniProt Q6SJ93 and related entries,1 ± 0.07
10,UniProt Q8IUQ4 and related entries,0.964 ± 0.028
11,IRF2BP1 (UniProt Q8IU81),0.992 ± 0.024
12,UniProt Q86WA6 and related entries,1.01 ± 0.034
13,HPS6 (UniProt Q86YV9),0.975 ± 0.071
14,UniProt Q6ZVM7 and related entries,0.996 ± 0.1
15,UniProt Q86TN4 and related entries,1.01 ± 0.037
16,UniProt Q7L0J3 and related entries,1.02 ± 0.024
17,ENOSF1 (UniProt Q7L5Y1),1.06 ± 0.061
18,DYM (UniProt Q7RTS9),0.988 ± 0.037
19,ANKMY2 (UniProt Q8IV38),0.994 ± 0.04

# Quoted at random: two entries already listed.
row,Target,NP40-soluble protein abundance
17,ENOSF1 (UniProt Q7L5Y1),1.06 ± 0.061
15,UniProt Q86TN4 and related entries,1.01 ± 0.037

# The list continues.

row,Target,NP40-soluble protein abundance
1,UniProt Q86V88 and related entries,0.962 ± 0.044
2,ZFYVE16 (UniProt Q7Z3T8),1.01 ± 0.013
3,UniProt Q86XN8 and related entries,0.953 ± 0.18
4,RABEPK (UniProt Q7Z6M1),1.03 ± 0.045
5,UniProt Q7Z2K6 and related entries,1.11 ± 0.17
6,APOOL (UniProt Q6UXV4),0.986 ± 0.012
7,ANKRD11 (UniProt Q6UB99),0.962 ± 0.01
8,UniProt Q86VP1-2|B8ZZD4,0.998 ± 0.044
9,UniProt Q6Y288,0.983 ± 0.026
10,TSPYL5 (UniProt Q86VY4),0.967 ± 0.018
11,UniProt Q7Z2Z1 and related entries,0.988 ± 0.14
12,UniProt Q7L3B6 and related entries,0.965 ± 0.068
13,TMEM65 (UniProt Q6PI78),0.943 ± 0.04
14,UniProt Q7KYR7 and related entries,1.07 ± 0.19
15,CES3 (UniProt Q6UWW8),1.06 ± 0.1
16,UniProt Q6UWI4,0.936 ± 0.12
17,UniProt Q86U86 and related entries,1.06 ± 0.03
18,UniProt Q6R327 and related entries,1.06 ± 0.017
